PubChem BioAssay AID686938 | Drosophila RNAi Screening Center – 2013
Screen: 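Knock-downs reducing store-operated calcium influx in Drosophila cells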 (primary screen). Cell system: Drosophila S2R+ cells. Reagent: long dsRNA against Drosophila genes, about 0.25 µg dsRNA per well, roughly 10,000 cells. Timing: 5 days of knock-down before the calcium assay. Conditions: thapsigargin (SERCA pump blocker) to empty calcium stores; entry signal taken 4 min after adding it. Measurement: 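Duplicate raw fluo-4 intensities per well from a plate reader, at rest and four minutes after thapsigargin emptied calcium stores; entry-to-rest ratio filled for only some wells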. Reading the numbers: calcium entry signal: higher = stronger calcium signal after store depletion; entry to resting ratio: higher = more calcium entry relative to resting level; resting calcium signal: higher = higher resting calcium signal. Units: calcium entry signal in fluorescence units; resting calcium signal in fluorescence units. Hit rule: 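Hit if the duplicate-averaged plate z-score for entry over resting signal is under −3; wells with weak total dye signal (Fmax z < −2) or more than 5 off-targets removed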. Meaning of the calls: active = strongly reduced calcium entry; inactive = no strong reduction.
The screen tested about 23,000 reagents; this is a random part of those that have a named target and a result. Of all reagents, 75 (0.33%) are marked active. 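Raw plate signals without normalisation; calls rest on plate z-scores that were not deposited; ratio present for only 364 wells.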 Reagents against one gene are numbered here. Not given: the dose of the treatment.

Trmt6 (tRNA methyltransferase 6 non-catalytic subunit) | calcium entry signal, replicate 1 = 2.70e7; calcium entry signal, replicate 2 = 2.69e7; resting calcium signal, replicate 1 = 1.35e7; resting calcium signal, replicate 2 = 1.34e7; Outcome = inactive
CG10417 | calcium entry signal, replicate 1 = 3.20e7; resting calcium signal, replicate 1 = 1.75e7; Outcome = inactive
TfIIA-S-2 | calcium entry signal, replicate 1 = 4.18e7; calcium entry signal, replicate 2 = 6.73e7; entry to resting ratio = 2.1; resting calcium signal, replicate 1 = 2.00e7; resting calcium signal, replicate 2 = 2.51e7; Outcome = inactive
Pli (Pellino) | calcium entry signal, replicate 1 = 3.29e7; calcium entry signal, replicate 2 = 3.81e7; resting calcium signal, replicate 1 = 1.69e7; resting calcium signal, replicate 2 = 1.68e7; Outcome = inactive
CG30148 | calcium entry signal, replicate 1 = 3.52e7; calcium entry signal, replicate 2 = 3.46e7; resting calcium signal, replicate 1 = 1.85e7; resting calcium signal, replicate 2 = 1.65e7; Outcome = inactive
CG10089 #1 | calcium entry signal, replicate 1 = 2.92e7; calcium entry signal, replicate 2 = 3.76e7; resting calcium signal, replicate 1 = 1.70e7; resting calcium signal, replicate 2 = 1.69e7; Outcome = inactive
CG10089 #2 | calcium entry signal, replicate 1 = 2.90e7; calcium entry signal, replicate 2 = 3.37e7; resting calcium signal, replicate 1 = 1.53e7; resting calcium signal, replicate 2 = 1.37e7; Outcome = inactive
Mlc2 (Myosin light chain 2) | calcium entry signal, replicate 1 = 5.26e7; calcium entry signal, replicate 2 = 5.91e7; resting calcium signal, replicate 1 = 2.33e7; resting calcium signal, replicate 2 = 2.66e7; Outcome = inactive
CG13722 #1 | calcium entry signal, replicate 1 = 2.17e7; calcium entry signal, replicate 2 = 3.36e7; resting calcium signal, replicate 1 = 1.16e7; resting calcium signal, replicate 2 = 1.50e7; Outcome = inactive
CG13722 #2 | calcium entry signal, replicate 1 = 4.60e7; calcium entry signal, replicate 2 = 3.13e7; resting calcium signal, replicate 1 = 1.91e7; resting calcium signal, replicate 2 = 1.49e7; Outcome = inactive
dah (discontinuous actin hexagon) | calcium entry signal, replicate 1 = 2.75e7; calcium entry signal, replicate 2 = 3.54e7; resting calcium signal, replicate 1 = 1.24e7; resting calcium signal, replicate 2 = 1.57e7; Outcome = inactive
Manf (Mesencephalic astrocyte-derived neurotrophic factor) | calcium entry signal, replicate 1 = 3.24e7; calcium entry signal, replicate 2 = 2.99e7; resting calcium signal, replicate 1 = 1.52e7; resting calcium signal, replicate 2 = 1.43e7; Outcome = inactive
NijA (Ninjurin A) | calcium entry signal, replicate 1 = 2.14e7; calcium entry signal, replicate 2 = 2.34e7; resting calcium signal, replicate 1 = 1.09e7; resting calcium signal, replicate 2 = 1.02e7; Outcome = inactive
Ac3 (Adenylate cyclase 3) | calcium entry signal, replicate 1 = 3.83e7; resting calcium signal, replicate 1 = 1.80e7; Outcome = inactive
MESK2 (Misexpression suppressor of KSR 2) | calcium entry signal, replicate 1 = 3.91e7; calcium entry signal, replicate 2 = 5.18e7; resting calcium signal, replicate 1 = 1.85e7; resting calcium signal, replicate 2 = 2.12e7; Outcome = inactive
CG17221 | calcium entry signal, replicate 1 = 3.04e7; calcium entry signal, replicate 2 = 2.27e7; resting calcium signal, replicate 1 = 1.52e7; resting calcium signal, replicate 2 = 1.15e7; Outcome = inactive
Sema1b (Semaphorin 1b) | calcium entry signal, replicate 1 = 2.91e7; calcium entry signal, replicate 2 = 2.66e7; resting calcium signal, replicate 1 = 1.34e7; resting calcium signal, replicate 2 = 1.33e7; Outcome = inactive
CG4658 | calcium entry signal, replicate 1 = 3.61e7; calcium entry signal, replicate 2 = 4.37e7; resting calcium signal, replicate 1 = 1.62e7; resting calcium signal, replicate 2 = 1.80e7; Outcome = inactive
CG31612 #1 | calcium entry signal, replicate 1 = 3.83e7; calcium entry signal, replicate 2 = 1.89e7; resting calcium signal, replicate 1 = 2.04e7; resting calcium signal, replicate 2 = 1.10e7; Outcome = inactive
CG31612 #2 | calcium entry signal, replicate 1 = 4.25e7; calcium entry signal, replicate 2 = 4.43e7; resting calcium signal, replicate 1 = 2.09e7; resting calcium signal, replicate 2 = 1.88e7; Outcome = inactive
Mst57Da (Male-specific RNA 57Da) | calcium entry signal, replicate 1 = 6.00e7; calcium entry signal, replicate 2 = 3.13e7; resting calcium signal, replicate 1 = 2.48e7; resting calcium signal, replicate 2 = 1.31e7; Outcome = inactive
